Experimental data as given in publication doi:10.1101/243014.
Where two headings read alike, the source gives them in different places. These are yes or no findings as the source states them, for the method shown. Binding seen in cells or lysates may run through a third protein. Some binding calls cover weakened binding; strength is not graded here. For some of these results: Where a sequence is shown, tags or fusion partners need not be part of it. Values belong to the molecule of their own block, whether it stands above or below them.

Protein sequences, listed by entry. Tags and fused reporters are not part of them. Lines headed by an entry give the natural chain unless they say otherwise; changes in a name come on top. Chains listed by the source or under a name are the forms on record and can include a tag or linker. Residues count along the entry.
UniProt P08621: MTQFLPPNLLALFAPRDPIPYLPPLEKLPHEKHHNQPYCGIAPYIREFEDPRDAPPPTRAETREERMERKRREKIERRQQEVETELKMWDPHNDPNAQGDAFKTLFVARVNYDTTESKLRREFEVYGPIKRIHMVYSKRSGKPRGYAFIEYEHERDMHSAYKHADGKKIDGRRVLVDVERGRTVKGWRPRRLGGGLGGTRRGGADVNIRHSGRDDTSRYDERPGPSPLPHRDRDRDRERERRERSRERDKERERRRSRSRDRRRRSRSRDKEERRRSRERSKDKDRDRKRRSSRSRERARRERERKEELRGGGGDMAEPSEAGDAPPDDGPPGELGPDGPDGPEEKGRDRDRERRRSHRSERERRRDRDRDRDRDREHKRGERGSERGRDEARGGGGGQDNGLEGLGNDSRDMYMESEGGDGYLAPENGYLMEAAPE
rU1-70K N-terminus and RNA recognition motif (residues 1–181): residues 1-181 of P08621
N-terminal domain (residues 1–99) of rU1-70K: residues 1-99 of P08621
LC1 domain (residues 231–308) of rU1-70K: residues 231-308 of P08621
LC2 domain alone (317–407) of rU1-70K: residues 317-407 of P08621
rU1-70K ΔLC1 (P08621, form named): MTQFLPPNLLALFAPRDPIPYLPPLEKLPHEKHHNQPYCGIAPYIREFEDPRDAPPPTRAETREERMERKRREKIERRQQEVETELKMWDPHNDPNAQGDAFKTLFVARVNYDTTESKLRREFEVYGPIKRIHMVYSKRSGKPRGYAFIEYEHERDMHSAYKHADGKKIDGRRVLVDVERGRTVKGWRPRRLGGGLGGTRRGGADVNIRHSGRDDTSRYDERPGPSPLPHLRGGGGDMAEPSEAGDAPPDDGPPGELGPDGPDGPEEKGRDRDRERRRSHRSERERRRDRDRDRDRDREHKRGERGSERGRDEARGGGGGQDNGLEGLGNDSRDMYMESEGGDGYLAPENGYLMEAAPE
rU1-70K ΔLC2 (P08621, form named): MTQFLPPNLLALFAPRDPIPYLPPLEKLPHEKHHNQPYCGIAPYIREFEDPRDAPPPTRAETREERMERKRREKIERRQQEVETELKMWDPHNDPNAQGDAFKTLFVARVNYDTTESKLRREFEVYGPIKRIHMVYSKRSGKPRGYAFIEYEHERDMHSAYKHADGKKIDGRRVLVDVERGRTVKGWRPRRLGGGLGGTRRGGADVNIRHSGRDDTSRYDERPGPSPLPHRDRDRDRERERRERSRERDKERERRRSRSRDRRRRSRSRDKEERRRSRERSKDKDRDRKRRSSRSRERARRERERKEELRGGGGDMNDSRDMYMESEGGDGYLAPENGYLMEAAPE
UniProt P49756: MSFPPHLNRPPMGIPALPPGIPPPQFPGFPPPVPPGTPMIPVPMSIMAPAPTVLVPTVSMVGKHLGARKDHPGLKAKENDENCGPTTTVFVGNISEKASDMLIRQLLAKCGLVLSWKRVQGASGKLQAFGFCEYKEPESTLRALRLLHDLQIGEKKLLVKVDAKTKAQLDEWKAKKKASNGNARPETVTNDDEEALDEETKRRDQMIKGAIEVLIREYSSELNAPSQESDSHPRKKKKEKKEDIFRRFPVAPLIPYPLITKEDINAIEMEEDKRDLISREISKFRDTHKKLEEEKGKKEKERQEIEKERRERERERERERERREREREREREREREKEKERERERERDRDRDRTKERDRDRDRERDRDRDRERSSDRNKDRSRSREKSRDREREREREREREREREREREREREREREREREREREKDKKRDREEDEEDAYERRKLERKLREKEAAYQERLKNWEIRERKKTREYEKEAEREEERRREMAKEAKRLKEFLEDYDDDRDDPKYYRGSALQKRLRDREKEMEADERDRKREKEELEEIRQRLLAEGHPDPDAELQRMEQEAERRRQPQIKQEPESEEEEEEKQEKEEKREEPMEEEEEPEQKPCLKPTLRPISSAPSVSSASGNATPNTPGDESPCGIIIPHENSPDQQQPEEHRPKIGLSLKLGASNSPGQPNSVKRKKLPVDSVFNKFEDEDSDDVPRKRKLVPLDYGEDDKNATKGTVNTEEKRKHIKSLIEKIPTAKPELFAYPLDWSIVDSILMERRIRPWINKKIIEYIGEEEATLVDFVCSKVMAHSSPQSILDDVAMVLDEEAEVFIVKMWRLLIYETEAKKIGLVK
UniProt Q13148: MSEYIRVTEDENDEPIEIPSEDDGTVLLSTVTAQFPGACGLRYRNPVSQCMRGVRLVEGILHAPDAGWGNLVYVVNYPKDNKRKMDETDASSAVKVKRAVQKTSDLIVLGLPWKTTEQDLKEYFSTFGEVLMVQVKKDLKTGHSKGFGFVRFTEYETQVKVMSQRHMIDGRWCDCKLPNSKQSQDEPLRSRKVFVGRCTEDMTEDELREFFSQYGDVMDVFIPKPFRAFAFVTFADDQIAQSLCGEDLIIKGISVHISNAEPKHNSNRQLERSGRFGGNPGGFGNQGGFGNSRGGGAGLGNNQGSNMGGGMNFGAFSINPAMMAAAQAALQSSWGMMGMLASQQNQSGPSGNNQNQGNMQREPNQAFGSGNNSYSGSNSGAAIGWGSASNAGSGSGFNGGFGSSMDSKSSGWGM
UniProt Q07955: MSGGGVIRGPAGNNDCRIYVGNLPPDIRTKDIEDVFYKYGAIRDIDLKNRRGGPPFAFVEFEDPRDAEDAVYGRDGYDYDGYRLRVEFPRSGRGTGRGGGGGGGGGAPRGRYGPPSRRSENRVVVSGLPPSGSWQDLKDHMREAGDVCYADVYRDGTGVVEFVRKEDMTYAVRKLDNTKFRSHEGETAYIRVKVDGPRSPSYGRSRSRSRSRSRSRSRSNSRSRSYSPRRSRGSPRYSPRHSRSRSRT
UniProt P09012: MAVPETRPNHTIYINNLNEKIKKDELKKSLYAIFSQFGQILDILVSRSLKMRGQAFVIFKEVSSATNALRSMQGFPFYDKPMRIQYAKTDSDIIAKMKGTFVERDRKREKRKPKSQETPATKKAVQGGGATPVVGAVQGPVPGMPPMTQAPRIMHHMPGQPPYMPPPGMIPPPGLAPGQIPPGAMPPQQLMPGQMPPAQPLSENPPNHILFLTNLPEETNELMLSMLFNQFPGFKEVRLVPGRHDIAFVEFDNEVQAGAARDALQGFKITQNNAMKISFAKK

Key:
Assay in all cases: co-IP
[1] = target: full-length recombinant GST-fused and Myc-tagged U1-70K (rU1-70K) (UniProt P08621)
rU1-70K ΔLC1 = rU1-70K ΔLC1 (UniProt P08621)
rU1-70K ΔLC2 [2] = target: rU1-70K ΔLC2 (UniProt P08621)
[3] = target: LC1 domain (residues 231–308) of rU1-70K (UniProt P08621)
[4] = target: LC2 domain alone (317–407) of rU1-70K (UniProt P08621)
[5] = target: N-terminal domain (residues 1–99) of rU1-70K (UniProt P08621)
[6] = target: T1, full-length recombinant GST-fused and Myc-tagged LUC7L3 (rLUC7L3) (UniProt O95232)
T1 sequence: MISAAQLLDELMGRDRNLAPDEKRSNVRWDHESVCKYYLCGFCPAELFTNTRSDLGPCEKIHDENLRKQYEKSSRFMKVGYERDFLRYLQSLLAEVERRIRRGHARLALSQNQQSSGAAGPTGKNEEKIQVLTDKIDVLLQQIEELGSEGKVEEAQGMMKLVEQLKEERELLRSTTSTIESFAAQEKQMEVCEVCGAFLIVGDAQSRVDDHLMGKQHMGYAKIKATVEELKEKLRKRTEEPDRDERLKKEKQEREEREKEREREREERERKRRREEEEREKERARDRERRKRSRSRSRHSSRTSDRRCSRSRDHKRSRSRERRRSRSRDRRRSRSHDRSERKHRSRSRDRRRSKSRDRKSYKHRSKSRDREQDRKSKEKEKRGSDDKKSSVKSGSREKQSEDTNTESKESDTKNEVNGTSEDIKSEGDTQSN

[7] = target: full-length recombinant GST-fused and Myc-tagged RBM25 (rRBM25) (UniProt P49756)
[8] = target: rU1-70K N-terminus and RNA recognition motif (residues 1–181) (UniProt P08621)
[9] = target: T1, full-length recombinant GST-fused and Myc-tagged LUC7L3 (rLUC7L3); remark: listed apart in the source
[10] = target: full-length recombinant GST-fused and Myc-tagged RBM25 (rRBM25) (UniProt P49756); remark: listed apart in the source
[11] = target: full-length recombinant GST-fused and Myc-tagged U1-70K (rU1-70K) (UniProt P08621); remark: listed apart in the source
rU1-70K ΔLC2 [12] = target: rU1-70K ΔLC2 (UniProt P08621); remark: listed apart in the source

Molecule: TDP-43 (from UniProt Q13148 1-414)
binding [1]: binds
binding (rU1-70K ΔLC1): binds
binding (rU1-70K ΔLC2 [2]): binds

Molecule: SRSF1 (from UniProt Q07955 1-248)
binding [1]: binds
binding (rU1-70K ΔLC2 [2]): binds

B1: endogenous LUC7L3 (protein, UniProt O95232 1-432)
chain: MISAAQLLDELMGRDRNLAPDEKRSNVRWDHESVCKYYLCGFCPAELFTNTRSDLGPCEKIHDENLRKQYEKSSRFMKVGYERDFLRYLQSLLAEVERRIRRGHARLALSQNQQSSGAAGPTGKNEEKIQVLTDKIDVLLQQIEELGSEGKVEEAQGMMKLVEQLKEERELLRSTTSTIESFAAQEKQMEVCEVCGAFLIVGDAQSRVDDHLMGKQHMGYAKIKATVEELKEKLRKRTEEPDRDERLKKEKQEREEREKEREREREERERKRRREEEEREKERARDRERRKRSRSRSRHSSRTSDRRCSRSRDHKRSRSRERRRSRSRDRRRSRSHDRSERKHRSRSRDRRRSKSRDRKSYKHRSKSRDREQDRKSKEKEKRGSDDKKSSVKSGSREKQSEDTNTESKESDTKNEVNGTSEDIKSEGDTQSN
binding [9]: binds
binding [10]: binds
binding [11]: binds
binding (rU1-70K ΔLC2 [12]): binds

Further lines, with some results ahead:

binding [1]: binds
binding (rU1-70K ΔLC2 [2]): binds
Molecule: U1A (from UniProt P09012 1-282)

binding [4]: no binding
binding [5]: no binding
binding [6]: binds
binding [7]: binds
binding [1]: binds
binding [8]: no binding
binding (rU1-70K ΔLC2 [2]): binds
Molecule: endogenous U1-70K (from UniProt P08621 1-437)
binding [3]: binds
